Assay results published in paper PMC7319343.
For at least one entry, the source does not settle the construct or the ends of the probe. Results from cells or extracts need not show a direct contact. No signal at the amounts used counts as a negative.

By UniProt entry, the sequences of proteins in these tests, tags left out.
UniProt P17325, whole entry: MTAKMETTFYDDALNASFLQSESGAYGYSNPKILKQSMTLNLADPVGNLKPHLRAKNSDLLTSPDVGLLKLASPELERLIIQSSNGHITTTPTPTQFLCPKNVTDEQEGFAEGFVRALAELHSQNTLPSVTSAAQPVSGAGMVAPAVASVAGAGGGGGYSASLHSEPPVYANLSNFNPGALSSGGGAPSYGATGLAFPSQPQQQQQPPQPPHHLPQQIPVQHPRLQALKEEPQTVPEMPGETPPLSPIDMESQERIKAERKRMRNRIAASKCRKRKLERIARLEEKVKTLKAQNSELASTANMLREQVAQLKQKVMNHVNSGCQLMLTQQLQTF

Molecular target: c-JUN (UniProt P17325)
Assay: competition with a labelled probe
Conditions: 100-fold excess unlabeled vs labeled CRE probe, did not diminish complex; 10 min preincubation then 30 min at 25 C with DIG probe; 4% PAGE in 0.5x TBE, 100 V, 70 min; protein in an extract; label: none (unlabeled competitor)

**Q.** Does “GGACTTCTTGGAATTAAGGGA (double strand) [STAT5B-binding probe]” bind?
**A.** Result: no binding
